Reference: the supplement of paper PMC8975748
Counter-ions that a name gives are not always drawn. ± gives the standard deviation of the averaged measurements. This is one part of the list. These are raw signals, not scaled to a control.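 The yeast community starts from one strain carrying four plasmids, each with an amino-acid or uracil synthesis gene and a fluorescent protein. Random plasmid loss creates mixed prototroph and auxotroph subpopulations. Cells were fixed and counted by automated confocal fluorescence imaging, and DMSO-treated wells served as the vehicle reference.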

tested on: Saccharomyces cerevisiae BY4741 SeMeCo community; assay: imaged cell count per well (cells); higher = more cells; conditions: 10 µM; 24 h; SM minimal medium
Method: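 Same SeMeCo high-content imaging drug screen: Selleck FDA-approved drugs at 10 µM, 24 h in SM medium, 384-well plates, 3 replicates.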

Row | SMILES | imaged cell count per well
1 | Oc1c(Cl)cc(Cl)cc1Sc1cc(Cl)cc(Cl)c1O [Bithionol] | 6690 ± 1600
2 | Clc1ccccc1C(c1ccccc1)(c1ccccc1)n1ccnc1 [Clotrimazole] | 5200 ± 1200
3 | Nc1ccc(C(=O)O)c(O)c1 [4-Aminosalicylic acid] | 31900 ± 2500
4 | Nc1nc(=O)[nH]cc1F [Flucytosine] | 965 ± 250
5 | Nc1nc2c(ncn2COCCO)c(=O)[nH]1 [Aciclovir] | 20900 ± 6500
6 | CN(Cc1ccc(C(C)(C)C)cc1)Cc1cccc2ccccc12 [Butenafine HCl] | 24100 ± 7800
7 | CO[C@H]1C[C@@H]2CC[C@@H](C)[C@@](O)(O2)C(=O)C(=O)N2CCCC[C@H]2C(=O)O[C@H]([C@H](C)C[C@@H]2CC[C@@H](OCCO)[C@H](OC)C2)CC(=O)[C@H](C)/C=C(\C)[C@@H](O)[C@@H](OC)C(=O)[C@H](C)C[C@H](C)/C=C/C=C/C=C/1C [Everolimus (RAD001)] | 9540 ± 330
8 | C#C[C@]1(O)CC[C@H]2[C@@H]3CCc4cc(O)ccc4[C@H]3CC[C@@]21C [Ethinyl Estradiol] | 23000 ± 2500
9 | Cc1cccc(C)c1OCC(C)N (configuration not stated) [Mexiletine HCl] | 26200 ± 3300
10 | CC1=C(C(=O)O)N2C(=O)[C@@H](NC(=O)[C@H](N)c3ccc(O)cc3)[C@H]2SC1 [Cefadroxil hydrate] | 27200 ± 4200
11 | Cc1nc(NC(=O)N2CCC[C@H]2C(N)=O)sc1-c1ccnc(C(C)(C)C(F)(F)F)c1 [Alpelisib (BYL719)] | 20600 ± 4900
12 | Cn1nnnc1SCC1=C(C(=O)O)N2C(=O)[C@@H](NC(=O)[C@H](OC=O)c3ccccc3)[C@H]2SC1 [Cefamandole nafate] | 21500 ± 10000
13 | CN1[C@@H](CC(=O)c2ccccc2)CCC[C@H]1C[C@H](O)c1ccccc1 [Lobeline hydrochloride] | 25400 ± 7400
14 | CCCN1C[C@H](C)[C@@H](O)[C@](C)(O)[C@@H](CC)OC(=O)[C@H](C)[C@@H](O[C@H]2C[C@@](C)(OC)[C@@H](O)[C@H](C)O2)[C@H](C)[C@@H](O[C@@H]2O[C@H](C)C[C@H](N(C)C)[C@H]2O)[C@](C)(O)C[C@H]1C [Gamithromycin] | 26200 ± 5000
15 | CC(C)(C)CC(C)(C)c1ccc(OCCOCC[N+](C)(C)Cc2ccccc2)cc1 [Benzethonium Chloride] | 29600 ± 11000
16 | Cc1c(-c2ccc(O)cc2)n(Cc2ccc(OCCN3CCCCCC3)cc2)c2ccc(O)cc12 [Bazedoxifene Acetate] | 19200 ± 4900

Row | SMILES | imaged cell count per well
17 | O=C1c2cccc3c2[C@H](CCC3)CN1[C@@H]1CN2CCC1CC2 [Palonosetron HCl] | 24400 ± 4500
18 | C1N2CN3CN1CN(C2)C3 [Methenamine] | 27200 ± 3800
19 | c1cnc(N2CCN(Cc3ccc4c(c3)OCO4)CC2)nc1 [Piribedil] | 16600 ± 8600
20 | CN(C)c1ccc(O)c2c1C[C@H]1C[C@H]3[C@H](N(C)C)C(O)=C(C(N)=O)C(=O)[C@@]3(O)C(O)=C1C2=O [Minocycline HCl] | 18300 ± 6400
21 | O=C1Nc2ccccc2C1=O [Isatin] | 26400 ± 6200
22 | CC(C)COc1ccc(CNC(=O)N(Cc2ccc(F)cc2)C2CCN(C)CC2)cc1 [Pimavanserin] | 21700 ± 8800
23 | CN1[C@@H]2CC[C@H]1C[C@@H](OC(=O)c1c[nH]c3ccccc13)C2 [Tropisetron HCl] | 16100 ± 1900
24 | CN1CCc2cc3c(cc2C(=O)Cc2ccc4c(c2C1)OCO4)OCO3 [Protopine] | 28800 ± 3300
25 | CN(C)CCn1nnnc1SCC1=C(C(=O)O)N2C(=O)[C@@H](NC(=O)Cc3csc(N)n3)[C@H]2SC1 [Cefotiam hydrochloride] | 25200 ± 3400
26 | CCN(CC)C(=O)N1CCN(C)CC1 [Diethylcarbamazine citrate] | 22100 ± 3400
27 | C[C@H]1c2cccc(O)c2C(=O)C2=C(O)[C@]3(O)C(=O)C(C(N)=O)=C(O)[C@@H](N(C)C)[C@@H]3[C@@H](O)[C@@H]21 [Doxycycline monohydrate] | 26600 ± 3100
28 | NNc1nncc2ccccc12 [Hydralazine HCl] | 23900 ± 3500
29 | OC(c1cc(C(F)(F)F)nc2c(C(F)(F)F)cccc12)C1CCCCN1 (configuration not stated) [Mefloquine HCl] | 22900 ± 6200
30 | Nc1ccc(S(=O)(=O)Nc2ccnn2-c2ccccc2)cc1 [Sulfaphenazole] | 19200 ± 4400
31 | CC(=O)[C@@]1(O)CC[C@H]2[C@@H]3CCC4=CC(=O)CCC4=C3[C@@H](c3ccc(N(C)C)cc3)C[C@@]21C [Ulipristal] | 26800 ± 3500
32 | CCOc1ccc2ccccc2c1C(=O)N[C@@H]1C(=O)N2[C@@H]1SC(C)(C)[C@@H]2C(=O)O [Nafcillin Sodium] | 29300 ± 7300

For reference, part of the list above:
Row | SMILES | imaged cell count per well
4 | Nc1nc(=O)[nH]cc1F [Flucytosine] | 965 ± 250
5 | Nc1nc2c(ncn2COCCO)c(=O)[nH]1 [Aciclovir] | 20900 ± 6500
